Source: PubChem BioAssay AID1259354 (Paczesny and Yang Labs, IUPUI and University of Michigan, 2018)
Out of some 78,000 compounds screened, about 1,800 (2.3%) were called active. The shares of active, inactive and inconclusive entries below differ from those in the screen. Rule as the data show it: active = inhibition above about 30%; inconclusive = mostly about 10% to 28%; inactive = weaker than that. More than one record can exist for a structure, and the calls need not agree.

Chains of the proteins cited; added tags and fusions are not shown. Lines headed by an entry give the natural chain unless they say otherwise; changes in a name come on top.
UniProt Q01638: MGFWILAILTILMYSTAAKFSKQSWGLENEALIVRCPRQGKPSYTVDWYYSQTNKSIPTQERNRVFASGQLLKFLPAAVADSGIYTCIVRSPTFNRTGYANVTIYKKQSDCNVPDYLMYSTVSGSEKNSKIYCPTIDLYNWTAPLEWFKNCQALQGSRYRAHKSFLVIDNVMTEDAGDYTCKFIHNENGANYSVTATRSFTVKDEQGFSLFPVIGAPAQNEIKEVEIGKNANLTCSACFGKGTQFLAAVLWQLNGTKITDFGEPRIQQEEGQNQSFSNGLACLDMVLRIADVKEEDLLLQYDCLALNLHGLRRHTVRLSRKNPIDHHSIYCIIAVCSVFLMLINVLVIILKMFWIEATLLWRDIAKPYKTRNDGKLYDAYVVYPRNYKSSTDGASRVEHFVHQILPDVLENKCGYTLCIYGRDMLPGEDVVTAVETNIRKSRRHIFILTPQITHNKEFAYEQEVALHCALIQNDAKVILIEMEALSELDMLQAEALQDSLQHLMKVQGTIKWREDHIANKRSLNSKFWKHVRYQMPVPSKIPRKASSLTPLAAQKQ

Target: Interleukin-1 receptor-like 1 (Homo sapiens) (UniProt Q01638)
Assay: blocks human ST2 binding to IL-33, primary screen, biochemical, AlphaLISA (AID 1259354)
Settings: AlphaLISA ST2-Fc/biotin-IL-33 interaction, 1 h; at 17 µM, hits give high values

| Structure (SMILES) | inhibition |
| --- | --- |
| CC1=CC[C@@H]2CN(Cc3ccccc3OCC(=O)N(C)C)C[C@@H]2C1 | inconclusive: 18% |
| CCOc1ccc(NC(=O)c2c(NC(=O)CN3CCN(C)CC3)sc3c2CCC3)cc1 | inconclusive: 12% |
| C[C@@H]1C(=O)O[C@H]2[C@H]1CC[C@@]1(C)Cc3sc(Nc4cccnc4)nc3[C@@H](C)[C@H]21 | active: 36% |
| CCc1nnc(CN(C)c2ncc(C)c(N(C)C)n2)o1 | inconclusive: 23% |
| COc1ccc(C2=CC(c3ccc(Cl)cc3)n3ncnc3N2)cc1OC (centres undefined) | inconclusive: 21% |
| CCOC(=O)c1c(C)n(-c2ccc(OCC)cc2)c2ccc(OC(C)=O)cc12 | inactive |
| CC1(C)CC(=O)C2=C(C1)OC(N)=C(C#N)C2c1ccc(Cl)cc1 (centres undefined) | inconclusive: 21% |
| Cc1ccsc1CCn1ccnc1-c1cnc(-c2ccccn2)nc1 | inconclusive: 19% |
| Cc1ccc(-c2nnc(-c3nc(NCc4ccco4)c4ccccc4n3)o2)cc1 | inconclusive: 18% |
| O=C(CSc1nc2cc(Cl)ccc2s1)Nc1ccc2c(c1)OCO2 | inactive |
| Cc1ccc(N=Cc2nc(-c3ccc(Cl)cc3)oc2O)c(Br)c1 | inconclusive: 25% |
| Cc1ccc(N(C)S(=O)(=O)c2ccc3c(c2)oc(=O)n3C)cc1 | inconclusive: 15% |
| Cc1ccc(F)c(-c2ncccc2NC(=O)C(C)C)c1 | inactive |
| Fc1ccccc1-c1noc(-c2ccc(NCCc3cscn3)nc2)n1 | inconclusive: 23% |
| CC(=O)c1ccc(N2C(=O)C3CC=CCC3C2=O)cc1 (centres undefined) | inconclusive: 11% |
| Cc1ccc(C2CC(=O)C3=C(C2)Nc2ccccc2NC3c2ccccc2C)cc1 (centres undefined) | inconclusive: 18% |
| CCN(CC)C(=O)CCC(=O)Nc1ccc2nc(N3CCN(C)CC3)cc(C)c2c1 | inconclusive: 10% |
| Cc1n[nH]c(C)c1S(=O)(=O)N1CCC(C(=O)N2CCn3c2nc2ccccc23)CC1 | inconclusive: 10% |
| COc1ccccc1NC1=CC(=O)CC(c2ccccc2)C1 (centres undefined) | inactive |
| CCOc1ccc(S(=O)(=O)Nc2ccc(Cl)cn2)cc1 | inactive |
| N#CC1=C2N=C(N)c3c(sc4c3CCCCC4)N2C2=C(C(=O)CCC2)C1c1cccnc1 (centres undefined) | inactive |
| COc1ccc(-c2nc3s/c(=C\C=C\c4ccccc4)c(=O)n3n2)cc1 | inactive |
| O=C(Nc1ccc([N+](=O)[O-])cc1)C12CC3CC(CC(C3)C1)C2 | inactive |
| Nc1nonc1-c1noc(-c2ccccc2[N+](=O)[O-])n1 | inconclusive: 13% |

| Structure (SMILES) | inhibition |
| --- | --- |
| COc1ccc(C(C)NC(=O)c2ccccc2)cc1OC (centres undefined) | inconclusive: 12% |
| CCC(=O)Nc1cccc(OCC(=O)N(C)Cc2ncc(C)[nH]2)c1 | inconclusive: 16% |
| Oc1oc(-c2ccc(Br)cc2)nc1C=Nc1ccc(Br)cc1 | inactive |
| O=C(Nc1cccnc1)C1CC1c1ccccc1 (centres undefined) | inconclusive: 12% |
| COc1ccc(-n2c(-c3ccco3)nc3c(cnn3-c3ccc(Cl)cc3)c2=O)cc1Cl | inconclusive: 12% |
| CC(C(=O)c1ccccc1)C(=O)c1ccccc1 | inactive |
| O=C(N1CCN(c2nc(-c3ccccc3)c3cc([N+](=O)[O-])ccc3n2)CC1)C(F)(F)F | inconclusive: 11% |
| O=C(NC1CCCc2c1cnn2-c1ccccn1)c1csc2c1CCCC2 (centres undefined) | inactive |
| O=C(NC(c1ccccc1)c1ccccc1)C1COc2ccccc2O1 (centres undefined) | inactive |
| O=C(c1c(F)cccc1F)N(c1ccc(F)cc1)C1C=CS(=O)(=O)C1 (centres undefined) | inactive |
| Cc1ncoc1C(=O)N1CCc2onc(-c3ccc(-c4ccccc4)cc3)c2C1 | inconclusive: 21% |
| Cc1ccc(Nc2cc(C)nc(N3CCN(S(=O)(=O)c4ccc5c(c4)Cc4ccccc4-5)CC3)n2)cc1 | inconclusive: 13% |
| CCc1ccccc1NCN1C(=O)c2ccccc2C1=O | inconclusive: 15% |
| O=C(CC1COCCN1)NCCc1cnn(-c2ccccc2)c1 (centres undefined) | inconclusive: 17% |
| Cc1ccc(N(C(=O)Cn2nnnc2N)C2(C(=O)Nc3ccccc3C)CCCCC2)cc1 | inconclusive: 13% |
| CCSCCOC(=O)C1=C(C)NC(=O)NC1c1cc(Cl)c(O)c(OC)c1 (centres undefined) | inactive |
| NC1CONC1=O (centres undefined) | inconclusive: 16% |
| Cc1cc2c(cc1C)NC(c1cccc([N+](=O)[O-])c1)C1=C(CC(C)(C)CC1=O)N2 (centres undefined) | inconclusive: 24% |
| COc1ccc(C(/C=C2\N(C)c3ccccc3C2(C)C)C[N+](=O)[O-])cc1 (centres undefined) | inconclusive: 14% |
| Cc1ccc(NC(=O)CSCc2n[nH]c(=O)[nH]2)c(C)c1 | inactive |
| c1ccc(CC(NCc2c[nH]c3ccccc23)c2ccccc2)cc1 (centres undefined) | inconclusive: 17% |
| C#CCNC(=O)CC[C@@H]1CNC(=O)[C@@H]2C[C@H](NC(=S)NCCOC)CN12 | inactive |
| CCc1c(C)sc(NC(=O)NC2CCCCC2)c1C(N)=O | inconclusive: 11% |
| CC(=O)c1ccc(NC(=O)O[C@@H]2CO[C@H]3[C@@H]2OC[C@@H]3NS(=O)(=O)c2ccc3ccccc3c2)cc1 | inactive |

Part of the list above in order of number of heavy atoms, smallest number first.

| Structure (SMILES) | inhibition |
| --- | --- |
| CC(C(=O)c1ccccc1)C(=O)c1ccccc1 | inactive |
| CCC(=O)Nc1cccc(OCC(=O)N(C)Cc2ncc(C)[nH]2)c1 | inconclusive: 16% |
| CCOc1ccc(NC(=O)c2c(NC(=O)CN3CCN(C)CC3)sc3c2CCC3)cc1 | inconclusive: 12% |

By substructure, the compounds so far containing an NH in an aromatic ring

| Structure (SMILES) | inhibition |
| --- | --- |
| Cc1n[nH]c(C)c1S(=O)(=O)N1CCC(C(=O)N2CCn3c2nc2ccccc23)CC1 | inconclusive: 10% |
| CCC(=O)Nc1cccc(OCC(=O)N(C)Cc2ncc(C)[nH]2)c1 | inconclusive: 16% |
| Cc1ccc(NC(=O)CSCc2n[nH]c(=O)[nH]2)c(C)c1 | inactive |
| c1ccc(CC(NCc2c[nH]c3ccccc23)c2ccccc2)cc1 (centres undefined) | inconclusive: 17% |

Further results.

| Structure (SMILES) | inhibition |
| --- | --- |
| COc1cccc(NC(=O)CN(c2cccc(Br)c2)S(C)(=O)=O)c1 | inactive |
| Cc1ccc(NC(=O)/C=C/c2ccccc2Cl)cc1Cl | inconclusive: 21% |
| Cc1[nH]c(=O)c(C#N)cc1-c1ccc2nccn2c1 | inconclusive: 12% |
| COc1ccc(NC(=O)c2noc3c2CCC3)cc1OC | inconclusive: 10% |
| Cc1cccn2c(=O)c3cc(C(=O)N(Cc4ccccc4)Cc4ccccc4)n(C)c3nc12 | inconclusive: 11% |
| CCc1ccc(CN2CCN(C(=O)c3ccc(OC)c(OC)c3)CC2)cc1 | inconclusive: 18% |
| COc1ccc(C2C(C#N)=C(N)OC3=C2C(=O)CC(c2ccccc2)C3)cc1 (centres undefined) | inactive |
| Cc1nc(S(=O)(=O)N(C)Cc2ccccc2)c(C#N)c(C)c1Cl | inconclusive: 11% |
| CCCOc1ccc(C2C3=C(CC(C)(C)CC3=O)N(CC(=O)O)C3=C2C(=O)CC(C)(C)C3)cc1 | inactive |
| N#Cc1c(N)n(-c2ccc(F)cc2F)c2nc3ccccc3nc12 | inconclusive: 17% |
| COc1ccc(C2C(C(=O)N3CCCC(C)C3)c3cc(OC)c(OC)cc3C(=O)N2C)cc1 (centres undefined) | inconclusive: 11% |
| CCC(=O)Nc1ccc(Nc2nc(C)cc(Nc3ccc(C)cc3)n2)cc1 | inconclusive: 21% |
| CC(C)(C)c1ccc(O)c(C(C)(C)C)c1O | inconclusive: 16% |
| CCN(CC)CCCn1c(-c2ccc(OC)cc2)cn2c3ccccc3nc12 | inconclusive: 24% |
| CC1=C[C@@H](CNC(=O)c2ccc(F)cc2)[C@H](C(C)C)C[C@H]1CC(=O)N1CCN(C)CC1 | inconclusive: 16% |
| COc1ccc(C(=O)NC(C)Cc2ccccc2)cc1[N+](=O)[O-] (centres undefined) | inactive |
| CCN(Cc1ccccc1)S(=O)(=O)c1cc(Br)cc2c1N(C(=O)C1CC1)CC2 | inconclusive: 10% |
| Cc1cccc(OC(=O)c2sc3ncn(C)c(=O)c3c2C)c1 | inconclusive: 20% |
| O=C1Nc2ccc(/C=C/c3ccccc3)cc2C(=O)N2CC[C@H](NS(=O)(=O)c3cccs3)[C@@H]12 | inconclusive: 11% |
| CCC1CCCCN1Cc1c(C)[nH]c2ccccc2c1=O (centres undefined) | inactive |
| Cc1cc(Br)ccc1NS(=O)(=O)c1cccnc1 | inactive |
| COc1ccc(OC)c(CNc2ccc3c(c2)ncn3C)c1 | active: 36% |
| CCOc1ccc(C2CC(=O)N3CN(Cc4ccccc4)CSC3=C2C#N)cc1OC (centres undefined) | inconclusive: 27% |
| Cc1ccc(C(NC(=O)c2ccc(-n3cnnc3)cc2)c2cccs2)cc1 (centres undefined) | inconclusive: 13% |

| Structure (SMILES) | inhibition |
| --- | --- |
| COc1ccc(-c2ccc(C(=O)N3CCC(n4nccc4NC(=O)CC(C)C)CC3)o2)cc1 | inconclusive: 19% |
| Cc1ccsc1S(=O)(=O)NC(CC(C)C)c1nnc2n1CCNCC2 (centres undefined) | inconclusive: 16% |
| O=S(=O)(c1ccc(/C=C/c2ccccc2)cc1)N1CCCC1 | inconclusive: 18% |
| Cc1ccc(-c2nnc(NCCCO)c3ccccc23)cc1 | inconclusive: 10% |
| C=CCNc1ncnc2c1cnn2-c1ccccc1 | inactive |
| O=C(NCc1ccccc1)c1noc2c1CCCCC2 | inconclusive: 16% |
| COc1cccc2cc(-c3nc(-c4ccc(Cl)cc4)cs3)c(=O)oc12 | inactive |
| COC(=O)c1cccc(C(=O)N2CCC3(CC2)CC3C(=O)NCCc2cccc(OC)c2)c1 (centres undefined) | inactive |
| CC(O)C#CCN1C(C)CCCC1C (centres undefined) | inconclusive: 11% |
| COCC(=O)N[C@H]1CC[C@]2(C)CC[C@@H]([C@H](C)C(=O)NC3CCCCC3)[C@H](O)[C@H]2[C@@H]1C | inactive |
| Clc1ccc(-c2ccc(CN3CCOCC3)cn2)cc1Cl | inactive |
| C=CCSc1nc2ccccc2n1C(=O)/C=C/c1ccc2c(c1)OCO2 | inconclusive: 24% |
| CCCc1cn(CC2CCN(C(=O)Nc3ccc4c(c3)OCO4)CC2)nn1 | inconclusive: 19% |
| Cc1ccsc1[C@@H]1CCN(C(=O)c2ccc(-c3ncn[nH]3)cc2)C[C@H]1O | inactive |
| CCOC(=O)C1=C(C)Nc2ncnn2C1c1ccccn1 (centres undefined) | inconclusive: 13% |
| CCOC(=O)C1(CCCc2ccccc2)CCN(C2CCSC2)CC1 (centres undefined) | inconclusive: 11% |
| COc1nc(C)nc(NC(=O)NC(=O)c2c(Cl)nc(C)c([N+](=O)[O-])c2C)n1 | inconclusive: 10% |
| Cc1ccccc1CSC1=NCCN1C(=O)c1ccc(S(=O)(=O)N2CCCCC2)cc1 | inactive |
| COc1ccc(C(=O)O)cc1S(=O)(=O)Nc1ccc(F)cc1 | inconclusive: 17% |
| CC1(C)OC(=O)N(CCN2C(=O)OC(C)(C)C2(C)O)C1(C)O (centres undefined) | inconclusive: 24% |
| CS(=O)(=O)NCCC1CCCN(Cc2ccc3nonc3c2)C1 (centres undefined) | inconclusive: 23% |
| CC(=O)NC(=O)c1cc2ccccc2oc1=Nc1ccc(C(F)(F)F)cc1 | inconclusive: 24% |
